Protein sequences, listed by entry. Tags and fused reporters are not part of them.
UniProt P27695, whole entry, looked up: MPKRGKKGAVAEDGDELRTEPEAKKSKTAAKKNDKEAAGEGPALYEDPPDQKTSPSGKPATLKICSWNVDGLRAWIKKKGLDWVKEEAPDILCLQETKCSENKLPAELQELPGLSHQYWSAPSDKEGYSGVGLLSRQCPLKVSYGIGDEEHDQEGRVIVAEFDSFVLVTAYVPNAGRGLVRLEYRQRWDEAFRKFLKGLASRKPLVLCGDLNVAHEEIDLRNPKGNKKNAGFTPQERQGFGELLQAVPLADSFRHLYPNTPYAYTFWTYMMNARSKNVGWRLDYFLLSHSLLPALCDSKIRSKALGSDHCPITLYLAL

The whole screen tested about 350,000 compounds, of which about 1,200 (0.34%) were called active. Inconclusive results, whose numbers are uncertain, are shown with a selection of clear calls. The call rests on the fitted dose curve; in most records, active means well fitted inhibition curve with a large enough effect; inconclusive means small, poorly fitted or top-dose-only effect; inactive means no such curve, though single readings can be large or run the other way. Potencies beside an inconclusive call are fits to weak or partial responses and may not hold up. Some structures have more than one record in an assay (separate samples or runs), and their calls can disagree.
What follows are compounds tested against DNA repair nuclease/redox regulator APEX1 (Homo sapiens) (UniProt P27695) (assay: qHTS Assay for Inhibitors of the Human Apurinic/apyrimidinic Endonuclease 1 (APE1)). Conditions: recombinant APE1, TAMRA/BHQ-2 abasic DNA cleavage fluorescence; series mostly up to 65.8 µM.
Summary of the method: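 Endonuclease cleavage of a quenched abasic-site DNA duplex (50 nM) by APE1 (0.75 nM) was tracked by TAMRA dequenching. Compounds were preincubated with enzyme 15 min at room temperature; data normalized to buffer-only and DMSO wells plus NSC13755 control.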
CC(c1nnc(SCC(=O)NC(=O)NCc2ccco2)n1-c1ccc(Cl)cc1)N(C)C (stereo not drawn) was tested, and the Potency was inconclusive: 6.31 µM [inhibitor, single point].
With Nc1nc(=S)c2ncn(C3CCCC3)c2[nH]1 the Potency was “inactive”.
For C/C(=N\NC(=O)c1c(Cl)c(C)nn1C)c1cccc(NC(=O)COc2ccc(Cl)cc2)c1, the Potency was inconclusive: 0.316 µM [inhibitor, full curve, poor fit].
For O=c1[nH]c(-[n+]2ccccc2)c(/C=N/N=C(\[O-])c2ccccc2)s1, the Potency was inconclusive: 22.4 µM [inhibitor, single point].
With CCN(c1ccccc1)S(=O)(=O)c1ccc2[nH]cc(C(=O)N3CCOCC3)c(=O)c2c1 the Potency was inconclusive: 20 µM [inhibitor, partial curve].
In the case of NC(=O)CSC1=N/C(=C\c2ccco2)C(=O)N1c1ccc(OC(F)F)cc1, the Potency is reported as inconclusive: 44.7 µM [inhibitor, single point].
With C=CCCN(Cc1ccc(OC)cc1)S(=O)(=O)c1ccccc1Br the Potency was “inactive”.
CC(C)c1cc(N2CCOCC2)n2ncc(-c3ccccc3)c2n1 was tested, and the Potency was inconclusive: 29.9 µM [inhibitor, single point].
For CC(C)(C)C(=O)Nc1ccc(Sc2ccc([N+](=O)[O-])cc2)cc1, the Potency was “inactive”.
In the case of CCOC(=O)/C(=C\c1ccc(Cl)cc1)c1nc2sc(C)c(C)c2c(=O)[nH]1, the Potency is reported as inconclusive: 31.6 µM [inhibitor, single point].
O=C(Nc1ccc(OCC(=O)N2CCOCC2)cc1)c1cncc(Br)c1 was tested, and the Potency was inconclusive: 39.8 µM [inhibitor, single point].
With COc1ccc(CCNC(=O)c2oc3ccc(S(=O)(=O)N4CCOCC4)cc3c2C)cc1OC the Potency was inconclusive: 39.8 µM [inhibitor, single point].
With O=C(NC(Cc1ccccc1)C(=O)O)/C(=C\c1cccc([N+](=O)[O-])c1)NC(=O)c1ccco1 (stereo not drawn) the Potency was “inactive”.
COc1ccccc1NS(=O)(=O)c1cc(NC(=O)c2cc[n+]([O-])cc2)ccc1N1CCCC1 was tested, and the Potency was inconclusive: 22.4 µM [inhibitor, single point].
With COc1cccc(/C=C2/SC(=S)N(CC(=O)NC3C=CS(=O)(=O)C3)C2=O)c1 (stereo not drawn) the Potency was “inactive”.
For Cc1ccc(C2CC(=O)NC(SCc3ccccc3)=C2C#N)o1 (stereo not drawn), the Potency was “inactive”.
CCC(C)NC(=O)CN(c1ccc(Cl)c(Cl)c1)S(C)(=O)=O (stereo not drawn) was tested, and the Potency was inconclusive: 10 µM [inhibitor, partial curve].
With COc1cc(CNCCNC(=O)c2cccs2)cc(OC)c1OC the Potency was inconclusive: 14.1 µM [inhibitor, partial curve].
For Cc1nc(Nc2ccccc2)c2nc(-c3ccccc3)n(CCN3CCOCC3)c2n1, the Potency was inconclusive: 0.0158 µM [inhibitor, full curve].
In the case of O=C(c1ccc(-c2ccc([N+](=O)[O-])cc2)o1)N1CCN(S(=O)(=O)c2cccs2)CC1, the Potency is reported as “inactive”.
COc1ccc(CCNc2ccc(S(=O)(=O)N3CCCC3)cc2[N+](=O)[O-])cc1 was tested, and the Potency was inconclusive: 15.8 µM [inhibitor, single point].
For CCCCn1c(NC(=O)c2ccccc2)c(C#N)c2nc3ccccc3nc21, the Potency was inconclusive: 39.8 µM [inhibitor, single point].
In the case of O=C(O)c1ccc(COc2ccccc2/C=C2/NC(=O)N(c3cccc(Cl)c3)C2=O)cc1, the Potency is reported as inconclusive: 8.91 µM [inhibitor, single point].
For COc1ccc(NC(=O)C2C3C=CC(C3)C2C(=O)NCc2ccco2)cc1 (stereo not drawn), the Potency was inconclusive: 1 µM [inhibitor, full curve].
In the case of Cc1ccc(S(=O)(=O)Cc2ccc(C(=O)NCc3ccc4c(c3)OCO4)o2)cc1, the Potency is reported as inconclusive: 22.4 µM [inhibitor, partial curve].
With CC(C)Cn1c(=O)[nH]c(=O)c2c(C(F)(F)F)cc(-c3ccccc3)nc21 the Potency was inconclusive: 39.8 µM [inhibitor, single point].
COc1ccc(-c2csc(NC(=O)C3COc4ccccc4O3)n2)cc1OC (stereo not drawn) was tested, and the Potency was inconclusive: 39.8 µM [inhibitor, single point].
For CCC(C)Cn1c(O)cc2nn(-c3nc4ccccc4s3)c(=O)c-2c1C (stereo not drawn), the Potency was inconclusive: 10 µM [inhibitor, partial curve].
For CCOC(=O)N1CCC(N2Cc3cccc(C(=O)N4CCN(c5cccc(C)c5C)CC4)c3C2=O)CC1, the Potency was inconclusive: 12.6 µM [inhibitor, partial curve, poor fit].
For COc1ccc(C2=CC(=O)C[C@H](c3ccc(OC)cc3)C2)cc1, the Potency was “inactive”.
With O=C(c1ccco1)[C@@H]1[C@@H]2C(=O)N(c3ccc(F)cc3)C(=O)[C@@H]2C2c3ccccc3C=CN21 (stereo partly drawn) the Potency was inconclusive: 28.2 µM [inhibitor, single point].
With CN(C)/C=N/c1cc(=O)[nH]c(=O)n1CC1CC1 the Potency was inconclusive: 5.62 µM [inhibitor, single point].
With O=C(/C=C/c1ccco1)N(c1ccccn1)c1ccccn1 the Potency was inconclusive: 20 µM [inhibitor, partial curve].
In the case of Cc1cc(/C=N/n2cnnc2)c(C)n1-c1cccc(Cl)c1, the Potency is reported as inconclusive: 7.94 µM [inhibitor, single point].
O=C(O)[C@@H]1[C@H]2C[C@H]3c4[nH]c5ccccc5c4CCN3C[C@@H]2CC[C@@H]1O was tested, and the Potency was “inactive”.
In the case of CC(=O)c1nn(-c2cccc(Br)c2)cc1C(=O)c1ccc(Cl)cc1, the Potency is reported as “inactive”.
In the case of COc1ccccc1N1CCN(C(=O)c2ccc3nc(-c4ccco4)c(-c4ccco4)nc3c2)CC1, the Potency is reported as inconclusive: 20 µM [inhibitor, single point].
For CCCCNC(=O)c1sc(=S)n2c1[nH]c(=O)c1ccccc12, the Potency was “inactive”.
In the case of CO/N=C(\C(=O)N[C@@H]1C(=O)N2C(C(=O)O)=C(COC(C)=O)CS[C@H]12)c1csc(N)n1, the Potency is reported as “inactive”.
For COc1cc(C(CCN2CCOCC2)c2c(OC)cc(OC)c3c(-c4ccccc4)cc(=O)oc23)cc(OC)c1OC (stereo not drawn), the Potency was inconclusive: 39.8 µM [inhibitor, single point].
With C#CCOCCOCCOCCNc1nc(N2CCN(C(=O)CCCCCCCCCCNC(=O)[C@H]([C@@H](C)CC)n3cc(CCCCCN)nn3)CC2)nc(N2CCN(C(=O)CCCCCCCCCCNC(=O)[C@H](CO)n3cc(CCCCCN)nn3)CC2)n1 the Potency was “inactive”.
With O=C(COc1ccc([N+](=O)[O-])cc1)Nc1nnc(-c2cccnc2)s1 the Potency was inconclusive: 35.5 µM [inhibitor, single point].
With CCNc1nc(NCC)n2c(SCC(=O)Nc3ccc(F)cc3)nnc2n1 the Potency was active: 11.9 µM.
In the case of CCn1cc(C(=O)NCc2ccco2)c(=O)c2cc(F)c(N3CCN(C(=O)c4ccco4)CC3)cc21, the Potency is reported as inconclusive: 39.8 µM [inhibitor, single point].
In the case of COC(=O)c1nn(-c2ccc(OC)cc2)c(=O)cc1NN, the Potency is reported as inconclusive: 17.8 µM [inhibitor, partial curve].
O=C(COC(=O)c1ccccc1C(=O)N1CCN(c2ccccc2)CC1)Nc1ccccc1 was tested, and the Potency was inconclusive: 0.178 µM [inhibitor, full curve, poor fit].
With Cc1nn(C)c(C)c1S(=O)(=O)N1CCC(C(=O)Nc2ccc3c(c2)OCCO3)CC1 the Potency was inconclusive: 0.0501 µM [inhibitor, full curve, poor fit].
With COCc1nnc(NC(=O)c2cc(OC)c(OC)cc2[N+](=O)[O-])s1 the Potency was inconclusive: 8.91 µM [inhibitor, single point].
With CC(C)C1=CC2=CC[C@@H]3[C@](C)(CO)CCC[C@]3(C)C2CC1 (stereo partly drawn) the Potency was “inactive”.
For CC(C)(C)c1csc(Sc2ccc([N+](=O)[O-])cn2)n1, the Potency was inconclusive: 8.91 µM [inhibitor, single point].
With C=C1c2c(Cl)ccc(O)c2C(O)=C2C(=O)[C@]3(O)C(O)=C(C(N)=O)C(=O)[C@@H](N(C)C)[C@@H]3[C@@H](O)[C@H]12 the Potency was inconclusive: 11.2 µM [inhibitor, partial curve, poor fit].
COC(=O)[C@@]1(Cc2ccccc2)[C@H]2c3cc(C(=O)N4CCCC4)n(Cc4cc(F)cc5c4OCOC5)c3C[C@H]2CN1C(=O)c1ccccc1 was tested, and the Potency was inconclusive: 0.1 µM [inhibitor, full curve].
Cc1ccc(-c2[nH]c(-c3ccc(Cl)cc3)nc2SCC(=O)NCC2CCCO2)cc1 (stereo not drawn) was tested, and the Potency was inconclusive: 2.51 µM [inhibitor, partial curve].
With Cn1c(C(=O)N2CCCC(C(=O)NCc3ccc4c(c3)OCO4)C2)cc2sccc21 (stereo not drawn) the Potency was inconclusive: 0.708 µM [inhibitor, single point].
For CN(C)c1ccc(-c2nc(NC3CCNCC3)c3ccccc3n2)cc1, the Potency was inconclusive: 35.5 µM [inhibitor, partial curve].
With CC1CCC(NC(=O)C2(C)CCC(=O)N2Cc2cccnc2)CC1 (stereo not drawn) the Potency was inconclusive: 44.7 µM [inhibitor, single point].
Cc1cc(=S)cc(C)n1CCO was tested, and the Potency was inconclusive: 0.141 µM [inhibitor, single point].
N#CCCn1c(=O)c(-c2ccc(Cl)cc2)nc2cnc(OCc3ccccc3)nc21 was tested, and the Potency was “inactive”.
Cc1ccc(SCC(=O)Nc2cccc(NC(=O)c3ccco3)c2)cc1 was tested, and the Potency was “inactive”.
Cc1noc(C)c1COc1ccc(C(=O)Nc2ccccn2)cc1 was tested, and the Potency was “inactive”.
With Cc1ccc(NC(=O)C(c2ccc(Cl)cc2)N2CCOCC2)cc1 (stereo not drawn) the Potency was “inactive”.
In the case of Cn1c(=S)c2[nH]c(SCCN3CCCC3)nc2n(C)c1=O, the Potency is reported as inconclusive: 44.7 µM [inhibitor, single point].
In the case of CC(=O)Nc1cccc(OC(=O)c2ccoc2C)c1, the Potency is reported as inconclusive: 39.8 µM [inhibitor, single point].
Further: nearly all actives have a fitted effect of over 55% in size.
Potency means the concentration at half of the fitted maximal effect.
